Results: the supplement of paper PMC7666118
The list shows a part of the results.

By UniProt entry, the sequences of proteins in these tests, tags left out. Where a name states a change or a piece, a line headed by the entry shows the natural chain unless it says otherwise.
UniProt P60468, whole entry: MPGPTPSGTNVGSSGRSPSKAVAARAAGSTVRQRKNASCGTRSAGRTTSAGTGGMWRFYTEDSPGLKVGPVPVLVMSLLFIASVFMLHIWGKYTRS
UniProt Q99720, whole entry: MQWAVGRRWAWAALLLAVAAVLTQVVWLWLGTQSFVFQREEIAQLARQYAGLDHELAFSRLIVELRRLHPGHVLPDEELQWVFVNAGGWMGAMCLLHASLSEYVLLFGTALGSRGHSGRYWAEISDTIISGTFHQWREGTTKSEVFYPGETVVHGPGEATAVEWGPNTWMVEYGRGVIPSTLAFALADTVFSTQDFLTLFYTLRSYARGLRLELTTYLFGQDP
UniProt Q12874: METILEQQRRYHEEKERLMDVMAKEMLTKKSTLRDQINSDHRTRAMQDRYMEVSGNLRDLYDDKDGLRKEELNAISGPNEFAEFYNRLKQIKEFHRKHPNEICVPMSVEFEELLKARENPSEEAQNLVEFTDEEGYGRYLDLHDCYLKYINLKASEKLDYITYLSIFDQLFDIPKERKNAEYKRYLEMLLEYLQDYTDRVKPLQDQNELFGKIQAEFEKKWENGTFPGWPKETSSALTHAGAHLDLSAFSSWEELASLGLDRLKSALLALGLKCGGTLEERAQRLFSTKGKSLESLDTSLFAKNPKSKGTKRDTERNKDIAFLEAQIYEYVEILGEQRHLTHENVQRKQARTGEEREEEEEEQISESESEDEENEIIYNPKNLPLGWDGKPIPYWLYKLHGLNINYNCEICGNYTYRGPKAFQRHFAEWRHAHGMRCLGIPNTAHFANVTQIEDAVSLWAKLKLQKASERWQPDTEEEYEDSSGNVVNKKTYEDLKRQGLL
UniProt P50443: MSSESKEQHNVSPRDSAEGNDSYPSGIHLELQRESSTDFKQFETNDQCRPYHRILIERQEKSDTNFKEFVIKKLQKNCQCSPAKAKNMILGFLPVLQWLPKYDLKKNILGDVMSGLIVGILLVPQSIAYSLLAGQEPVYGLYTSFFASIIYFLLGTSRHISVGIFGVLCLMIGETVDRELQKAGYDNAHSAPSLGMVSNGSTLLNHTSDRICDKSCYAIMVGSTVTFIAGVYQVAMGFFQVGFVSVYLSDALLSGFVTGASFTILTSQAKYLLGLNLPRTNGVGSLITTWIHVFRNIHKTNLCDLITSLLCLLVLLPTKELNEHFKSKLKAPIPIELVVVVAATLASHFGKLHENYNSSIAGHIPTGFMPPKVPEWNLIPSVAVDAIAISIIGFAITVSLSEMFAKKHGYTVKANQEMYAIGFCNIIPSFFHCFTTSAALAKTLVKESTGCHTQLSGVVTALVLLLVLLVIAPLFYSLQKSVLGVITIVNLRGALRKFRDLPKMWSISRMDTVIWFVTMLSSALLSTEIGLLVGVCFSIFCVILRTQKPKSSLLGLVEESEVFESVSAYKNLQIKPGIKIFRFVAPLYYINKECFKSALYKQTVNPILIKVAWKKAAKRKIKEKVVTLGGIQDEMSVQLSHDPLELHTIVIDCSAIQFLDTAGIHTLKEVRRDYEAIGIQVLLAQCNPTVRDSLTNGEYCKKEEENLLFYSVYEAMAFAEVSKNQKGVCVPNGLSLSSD
UniProt P11169: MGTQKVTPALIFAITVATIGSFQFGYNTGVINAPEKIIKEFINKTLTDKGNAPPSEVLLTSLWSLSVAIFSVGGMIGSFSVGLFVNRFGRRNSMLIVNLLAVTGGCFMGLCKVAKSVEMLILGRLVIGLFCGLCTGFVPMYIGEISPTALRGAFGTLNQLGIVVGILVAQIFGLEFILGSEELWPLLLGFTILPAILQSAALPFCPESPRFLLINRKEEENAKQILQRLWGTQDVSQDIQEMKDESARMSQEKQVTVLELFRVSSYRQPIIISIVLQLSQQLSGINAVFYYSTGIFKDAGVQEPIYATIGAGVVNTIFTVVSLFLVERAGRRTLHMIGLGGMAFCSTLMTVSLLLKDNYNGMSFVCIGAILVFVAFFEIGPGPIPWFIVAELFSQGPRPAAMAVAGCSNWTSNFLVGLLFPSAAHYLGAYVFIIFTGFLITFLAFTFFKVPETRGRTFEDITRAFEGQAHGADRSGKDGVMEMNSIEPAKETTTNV
UniProt Q8WUM9: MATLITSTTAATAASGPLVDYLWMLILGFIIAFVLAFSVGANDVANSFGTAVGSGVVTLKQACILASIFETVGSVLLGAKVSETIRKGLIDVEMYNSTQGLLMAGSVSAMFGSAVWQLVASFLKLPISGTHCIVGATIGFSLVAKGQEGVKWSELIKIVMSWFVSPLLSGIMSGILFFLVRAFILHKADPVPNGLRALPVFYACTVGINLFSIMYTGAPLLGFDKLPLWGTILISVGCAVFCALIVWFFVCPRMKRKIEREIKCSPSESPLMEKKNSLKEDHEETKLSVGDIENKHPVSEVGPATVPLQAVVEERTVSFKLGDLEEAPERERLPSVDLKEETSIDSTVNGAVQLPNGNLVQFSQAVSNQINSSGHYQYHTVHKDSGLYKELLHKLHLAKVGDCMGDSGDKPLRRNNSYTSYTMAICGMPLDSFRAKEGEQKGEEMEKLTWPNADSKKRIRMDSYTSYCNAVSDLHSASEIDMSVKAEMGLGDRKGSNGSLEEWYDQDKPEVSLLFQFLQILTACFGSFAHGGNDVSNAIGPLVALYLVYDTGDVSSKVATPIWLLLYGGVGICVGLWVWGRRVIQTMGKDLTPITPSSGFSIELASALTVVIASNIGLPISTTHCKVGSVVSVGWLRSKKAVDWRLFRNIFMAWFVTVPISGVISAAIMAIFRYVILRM
UniProt Q9BWU0: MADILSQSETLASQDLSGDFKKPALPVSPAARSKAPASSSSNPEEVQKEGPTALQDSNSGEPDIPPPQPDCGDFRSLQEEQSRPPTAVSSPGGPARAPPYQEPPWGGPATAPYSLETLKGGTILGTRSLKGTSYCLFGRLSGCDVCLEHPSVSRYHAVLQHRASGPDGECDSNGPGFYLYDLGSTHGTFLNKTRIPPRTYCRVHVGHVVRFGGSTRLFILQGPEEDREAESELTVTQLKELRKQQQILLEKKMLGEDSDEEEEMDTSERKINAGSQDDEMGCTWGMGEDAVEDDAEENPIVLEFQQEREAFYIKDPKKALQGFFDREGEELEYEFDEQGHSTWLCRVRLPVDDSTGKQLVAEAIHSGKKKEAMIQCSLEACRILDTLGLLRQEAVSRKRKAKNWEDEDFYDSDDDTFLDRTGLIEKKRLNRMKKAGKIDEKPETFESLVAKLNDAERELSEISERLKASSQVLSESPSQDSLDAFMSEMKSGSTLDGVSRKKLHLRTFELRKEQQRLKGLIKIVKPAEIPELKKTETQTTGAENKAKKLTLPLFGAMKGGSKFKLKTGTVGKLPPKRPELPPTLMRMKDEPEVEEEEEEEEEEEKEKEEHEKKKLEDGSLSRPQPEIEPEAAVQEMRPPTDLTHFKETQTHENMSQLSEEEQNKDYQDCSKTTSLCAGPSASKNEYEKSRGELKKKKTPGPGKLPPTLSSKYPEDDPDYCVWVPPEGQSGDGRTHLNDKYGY
UniProt Q14493, whole entry, looked up: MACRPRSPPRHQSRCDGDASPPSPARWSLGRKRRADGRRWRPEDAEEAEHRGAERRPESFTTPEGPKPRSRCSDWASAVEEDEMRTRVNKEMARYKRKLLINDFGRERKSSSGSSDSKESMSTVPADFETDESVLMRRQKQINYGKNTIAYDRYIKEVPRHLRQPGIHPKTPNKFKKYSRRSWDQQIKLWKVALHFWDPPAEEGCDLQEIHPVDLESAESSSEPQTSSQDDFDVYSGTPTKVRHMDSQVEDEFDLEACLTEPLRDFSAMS
UniProt Q0VDG4: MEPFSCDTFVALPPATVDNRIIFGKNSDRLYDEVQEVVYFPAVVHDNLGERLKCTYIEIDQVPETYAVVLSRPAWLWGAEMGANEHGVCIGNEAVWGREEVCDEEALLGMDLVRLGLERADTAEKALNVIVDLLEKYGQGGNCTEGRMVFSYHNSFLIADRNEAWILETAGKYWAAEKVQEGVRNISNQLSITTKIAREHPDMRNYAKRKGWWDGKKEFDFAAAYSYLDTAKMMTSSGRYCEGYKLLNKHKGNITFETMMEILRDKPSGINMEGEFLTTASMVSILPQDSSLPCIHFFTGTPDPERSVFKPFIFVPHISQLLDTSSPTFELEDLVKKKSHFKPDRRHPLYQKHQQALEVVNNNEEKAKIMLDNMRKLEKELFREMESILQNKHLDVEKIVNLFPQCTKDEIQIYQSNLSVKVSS
UniProt P67812: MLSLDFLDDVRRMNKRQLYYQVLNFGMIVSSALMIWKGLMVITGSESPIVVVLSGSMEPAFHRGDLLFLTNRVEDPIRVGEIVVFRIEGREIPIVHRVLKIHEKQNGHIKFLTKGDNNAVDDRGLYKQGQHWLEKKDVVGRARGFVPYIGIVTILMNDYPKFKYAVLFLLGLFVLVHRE
UniProt Q8WWI5: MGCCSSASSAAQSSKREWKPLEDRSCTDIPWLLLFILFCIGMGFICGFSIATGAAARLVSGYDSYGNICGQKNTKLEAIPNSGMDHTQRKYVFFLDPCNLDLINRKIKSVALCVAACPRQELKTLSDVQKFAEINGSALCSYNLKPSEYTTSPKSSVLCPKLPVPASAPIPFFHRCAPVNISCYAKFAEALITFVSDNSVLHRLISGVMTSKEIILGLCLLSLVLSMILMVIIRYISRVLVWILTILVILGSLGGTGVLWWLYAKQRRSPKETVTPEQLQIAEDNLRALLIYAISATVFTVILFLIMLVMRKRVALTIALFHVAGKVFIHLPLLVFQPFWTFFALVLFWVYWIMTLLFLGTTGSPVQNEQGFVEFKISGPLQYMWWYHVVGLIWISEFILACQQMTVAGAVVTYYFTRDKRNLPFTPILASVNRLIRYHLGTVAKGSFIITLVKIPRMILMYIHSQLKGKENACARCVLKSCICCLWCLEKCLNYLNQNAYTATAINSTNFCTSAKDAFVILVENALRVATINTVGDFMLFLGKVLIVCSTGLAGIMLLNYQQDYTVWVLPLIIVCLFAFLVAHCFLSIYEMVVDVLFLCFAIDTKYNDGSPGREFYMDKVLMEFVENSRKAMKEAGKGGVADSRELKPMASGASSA
UniProt Q8NBJ9: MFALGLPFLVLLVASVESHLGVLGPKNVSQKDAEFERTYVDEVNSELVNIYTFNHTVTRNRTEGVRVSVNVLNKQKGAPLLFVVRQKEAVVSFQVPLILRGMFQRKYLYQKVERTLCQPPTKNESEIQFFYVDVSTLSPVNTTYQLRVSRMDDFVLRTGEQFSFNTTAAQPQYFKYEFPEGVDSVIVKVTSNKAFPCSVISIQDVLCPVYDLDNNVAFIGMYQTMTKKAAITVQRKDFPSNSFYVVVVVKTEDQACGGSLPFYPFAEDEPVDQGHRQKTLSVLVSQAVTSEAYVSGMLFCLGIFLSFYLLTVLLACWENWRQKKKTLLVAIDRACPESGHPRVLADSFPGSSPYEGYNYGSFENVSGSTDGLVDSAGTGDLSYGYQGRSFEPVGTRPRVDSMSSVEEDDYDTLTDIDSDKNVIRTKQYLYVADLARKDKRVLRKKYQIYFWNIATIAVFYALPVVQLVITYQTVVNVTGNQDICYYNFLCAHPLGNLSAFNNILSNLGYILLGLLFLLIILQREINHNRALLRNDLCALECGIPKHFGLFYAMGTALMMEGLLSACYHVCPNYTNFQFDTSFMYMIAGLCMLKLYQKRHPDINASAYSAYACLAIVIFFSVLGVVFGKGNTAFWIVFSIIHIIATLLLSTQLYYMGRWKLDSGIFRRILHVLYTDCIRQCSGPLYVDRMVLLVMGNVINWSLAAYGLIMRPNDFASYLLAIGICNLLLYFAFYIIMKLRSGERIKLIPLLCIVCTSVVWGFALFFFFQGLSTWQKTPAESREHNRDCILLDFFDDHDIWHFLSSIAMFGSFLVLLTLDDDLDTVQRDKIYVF
UniProt P50452: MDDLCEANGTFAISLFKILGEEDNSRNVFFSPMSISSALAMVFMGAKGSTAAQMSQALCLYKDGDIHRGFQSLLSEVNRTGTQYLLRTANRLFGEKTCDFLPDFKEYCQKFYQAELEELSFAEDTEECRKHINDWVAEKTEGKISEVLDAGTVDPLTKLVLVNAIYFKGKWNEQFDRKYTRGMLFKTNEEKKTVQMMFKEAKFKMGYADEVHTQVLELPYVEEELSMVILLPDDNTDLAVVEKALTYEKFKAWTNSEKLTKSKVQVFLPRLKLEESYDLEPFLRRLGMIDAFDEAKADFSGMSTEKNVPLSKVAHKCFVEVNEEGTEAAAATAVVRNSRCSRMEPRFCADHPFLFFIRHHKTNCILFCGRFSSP
UniProt Q6P4A7: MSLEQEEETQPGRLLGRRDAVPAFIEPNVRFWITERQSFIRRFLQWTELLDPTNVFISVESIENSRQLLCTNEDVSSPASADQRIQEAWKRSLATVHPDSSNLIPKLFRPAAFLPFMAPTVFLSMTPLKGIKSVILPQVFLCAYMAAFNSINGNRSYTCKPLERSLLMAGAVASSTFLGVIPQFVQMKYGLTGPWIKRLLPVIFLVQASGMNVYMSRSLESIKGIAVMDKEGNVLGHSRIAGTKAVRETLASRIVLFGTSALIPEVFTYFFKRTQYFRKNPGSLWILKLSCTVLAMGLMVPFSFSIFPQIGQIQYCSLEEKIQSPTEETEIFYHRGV

Compound: COc1ccc(Cn2ccc3ccc(C(=O)NO)cc32)cc1
Experiment: dose-dependent thermal stabilisation call (2D-TPP, DLPTP, 10% FDR) (binary (1 = stabilised)); higher = stabilised by the compound
Conditions: system: HL-60 intact cells; concentration range 0.04-10 µM

| Target | dose-dependent thermal stabilisation call |
| --- | --- |
| SEC61B (UniProt P60468) | inactive: 0 |
| SIGIRR (UniProt Q6IA17) | inactive: 0 |
| SETD1A (UniProt O15047) | inactive: 0 |
| SFRS5 (UniProt Q13243) | inactive: 0 |
| SIGMAR1 (UniProt Q99720) | inactive: 0 |
| SF3A3 (UniProt Q12874) | inactive: 0 |
| SCPEP1 (UniProt Q9HB40) | inactive: 0 |
| SCP2 (UniProt P22307) | inactive: 0 |
| SLC26A2 (UniProt P50443) | inactive: 0 |
| SLC29A3 (UniProt Q9BZD2) | inactive: 0 |
| SLC25A38 (UniProt Q96DW6) | inactive: 0 |
| SLC2A3 (UniProt P11169) | inactive: 0 |
| SDF2L1 (UniProt Q9HCN8) | inactive: 0 |
| SLC20A1 (UniProt Q8WUM9) | inactive: 0 |
| SLC38A2 (UniProt Q96QD8) | inactive: 0 |
| SEC63 (UniProt Q9UGP8) | inactive: 0 |
| SLC4A1AP (UniProt Q9BWU0) | inactive: 0 |
| SEPSECS (UniProt Q9HD40) | inactive: 0 |
| SEPHS1 (UniProt P49903) | inactive: 0 |

A second format for part of the listing above:
Target	dose-dependent thermal stabilisation call
SIGMAR1 (UniProt Q99720)	inactive: 0
SEPHS1 (UniProt P49903)	inactive: 0

Further entries:

| Target | dose-dependent thermal stabilisation call |
| --- | --- |
| SLBP (UniProt Q14493) | inactive: 0 |
| SCRN3 (UniProt Q0VDG4) | inactive: 0 |
| SLC30A7 (UniProt Q8NEW0) | inactive: 0 |
| SLC25A19 (UniProt Q9HC21) | inactive: 0 |
| SEC11A (UniProt P67812) | inactive: 0 |
| SLC44A1 (UniProt Q8WWI5) | inactive: 0 |
| SFRS8 (UniProt Q12872) | inactive: 0 |
| SEMA4D (UniProt Q92854) | inactive: 0 |
| SIDT2 (UniProt Q8NBJ9) | inactive: 0 |
| SERPINB8 (UniProt P50452) | inactive: 0 |
| SLC26A6 (UniProt Q9BXS9) | inactive: 0 |
| SCNM1 (UniProt Q9BWG6) | inactive: 0 |
| SLC25A10 (UniProt Q9UBX3) | inactive: 0 |
| SEC22B (UniProt O75396) | inactive: 0 |
| SLC16A3 (UniProt O15427) | inactive: 0 |
| SIL1 (UniProt Q9H173) | inactive: 0 |
| SFXN4 (UniProt Q6P4A7) | inactive: 0 |
| SCYL1 (UniProt Q96KG9) | inactive: 0 |
